Experimental data: article PMC11162808
Results are given in words; binding and its absence hold for the method and conditions named. In cells and extracts the contact can be indirect. Some results given as binding are weak or reduced against the parent protein; the word gives no strength.

Amino acid sequences for entries named in this document (tags omitted).
UniProt O14497: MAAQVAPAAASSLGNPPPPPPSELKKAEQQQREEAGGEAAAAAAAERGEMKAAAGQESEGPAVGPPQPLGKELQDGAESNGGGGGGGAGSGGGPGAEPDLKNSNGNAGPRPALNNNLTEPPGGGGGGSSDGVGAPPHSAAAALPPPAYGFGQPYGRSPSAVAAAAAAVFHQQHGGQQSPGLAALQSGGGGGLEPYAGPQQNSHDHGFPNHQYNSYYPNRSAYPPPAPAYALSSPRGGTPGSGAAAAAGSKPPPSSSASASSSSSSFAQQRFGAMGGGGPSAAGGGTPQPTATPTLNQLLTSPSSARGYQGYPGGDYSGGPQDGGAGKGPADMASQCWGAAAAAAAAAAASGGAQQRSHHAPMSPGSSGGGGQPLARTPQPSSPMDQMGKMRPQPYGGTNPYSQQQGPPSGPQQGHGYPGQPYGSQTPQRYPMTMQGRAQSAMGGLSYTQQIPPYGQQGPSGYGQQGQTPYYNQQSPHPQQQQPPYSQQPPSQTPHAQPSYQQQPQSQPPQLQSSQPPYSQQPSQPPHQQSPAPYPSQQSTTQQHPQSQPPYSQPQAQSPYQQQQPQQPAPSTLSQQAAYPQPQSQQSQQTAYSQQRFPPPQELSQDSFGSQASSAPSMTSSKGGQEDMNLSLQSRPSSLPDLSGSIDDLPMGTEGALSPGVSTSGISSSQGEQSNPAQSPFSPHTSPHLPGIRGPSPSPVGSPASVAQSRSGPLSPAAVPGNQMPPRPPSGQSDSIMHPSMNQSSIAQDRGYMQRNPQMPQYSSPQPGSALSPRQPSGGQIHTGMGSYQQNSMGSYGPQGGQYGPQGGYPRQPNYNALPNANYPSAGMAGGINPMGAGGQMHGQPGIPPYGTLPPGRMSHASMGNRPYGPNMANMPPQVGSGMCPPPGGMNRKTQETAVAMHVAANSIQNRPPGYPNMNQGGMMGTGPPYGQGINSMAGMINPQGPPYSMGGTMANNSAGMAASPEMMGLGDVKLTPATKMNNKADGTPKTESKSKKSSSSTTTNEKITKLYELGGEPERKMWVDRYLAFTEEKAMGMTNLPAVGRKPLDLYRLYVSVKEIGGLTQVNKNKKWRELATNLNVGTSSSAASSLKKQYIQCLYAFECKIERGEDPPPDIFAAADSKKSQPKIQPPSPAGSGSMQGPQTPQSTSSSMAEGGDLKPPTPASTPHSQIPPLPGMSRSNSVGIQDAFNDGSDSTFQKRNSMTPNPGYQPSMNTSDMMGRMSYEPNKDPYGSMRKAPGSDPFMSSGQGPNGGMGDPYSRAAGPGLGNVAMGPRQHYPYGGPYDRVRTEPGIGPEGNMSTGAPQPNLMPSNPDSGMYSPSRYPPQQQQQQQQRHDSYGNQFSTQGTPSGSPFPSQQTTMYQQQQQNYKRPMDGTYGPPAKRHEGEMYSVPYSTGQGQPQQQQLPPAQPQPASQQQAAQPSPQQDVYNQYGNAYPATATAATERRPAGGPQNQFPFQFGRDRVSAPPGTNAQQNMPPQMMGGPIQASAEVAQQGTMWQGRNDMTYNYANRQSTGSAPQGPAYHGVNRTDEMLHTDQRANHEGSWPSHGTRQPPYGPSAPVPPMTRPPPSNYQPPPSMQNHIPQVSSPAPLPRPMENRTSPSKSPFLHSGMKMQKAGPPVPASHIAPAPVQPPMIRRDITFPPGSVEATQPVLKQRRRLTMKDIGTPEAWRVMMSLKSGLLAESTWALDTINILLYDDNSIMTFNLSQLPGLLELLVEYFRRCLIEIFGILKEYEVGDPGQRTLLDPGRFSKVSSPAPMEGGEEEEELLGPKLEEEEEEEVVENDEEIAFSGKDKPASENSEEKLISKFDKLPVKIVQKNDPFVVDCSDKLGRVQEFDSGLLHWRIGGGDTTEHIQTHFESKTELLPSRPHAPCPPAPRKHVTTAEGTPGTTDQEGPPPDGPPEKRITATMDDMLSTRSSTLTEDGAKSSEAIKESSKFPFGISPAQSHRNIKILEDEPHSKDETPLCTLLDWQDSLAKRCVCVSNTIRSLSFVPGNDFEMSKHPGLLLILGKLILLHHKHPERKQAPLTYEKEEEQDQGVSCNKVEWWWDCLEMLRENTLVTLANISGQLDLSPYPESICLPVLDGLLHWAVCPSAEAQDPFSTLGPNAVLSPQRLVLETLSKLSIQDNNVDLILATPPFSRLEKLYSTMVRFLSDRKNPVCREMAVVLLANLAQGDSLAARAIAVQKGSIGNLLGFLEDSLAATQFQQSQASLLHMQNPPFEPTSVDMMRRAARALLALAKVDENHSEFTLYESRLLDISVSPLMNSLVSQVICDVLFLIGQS
UniProt Q13547: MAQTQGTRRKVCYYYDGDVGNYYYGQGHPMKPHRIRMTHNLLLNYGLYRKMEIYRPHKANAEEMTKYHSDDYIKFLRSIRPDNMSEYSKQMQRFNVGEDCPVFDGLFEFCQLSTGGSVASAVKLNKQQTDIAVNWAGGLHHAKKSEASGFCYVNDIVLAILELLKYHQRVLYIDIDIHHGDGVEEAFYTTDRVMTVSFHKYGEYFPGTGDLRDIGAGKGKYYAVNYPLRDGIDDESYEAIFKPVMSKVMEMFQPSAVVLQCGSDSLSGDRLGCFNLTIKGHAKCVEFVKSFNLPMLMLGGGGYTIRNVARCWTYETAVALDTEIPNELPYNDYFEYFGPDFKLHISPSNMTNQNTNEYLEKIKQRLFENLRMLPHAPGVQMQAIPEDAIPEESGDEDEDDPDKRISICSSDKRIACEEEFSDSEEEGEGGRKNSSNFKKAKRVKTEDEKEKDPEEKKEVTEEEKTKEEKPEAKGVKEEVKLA

Molecular target: AT-rich interaction domain protein 1A (ARID1A) (human (endogenous in the paper's human cell lines; the line used for the IP is not stated)) (UniProt O14497)
Test: co-IP; IP with anti-ARID1A (anti-IgG as control) from benzonase-treated nuclear lysate, protein A/G magnetic beads, beads boiled in Laemmli buffer and loaded on an SDS gel; cells without and with DNA damage

HDAC1 (from UniProt Q13547 1-482) was tested, and the binding was “binds”.
